This passage reports binding signal results from article PMC7862700.

Sequences of proteins named here, by UniProt entry; tags and fusion partners are left off. A change or cut given only in a name is not applied to a line headed by its entry.
UniProt O43186: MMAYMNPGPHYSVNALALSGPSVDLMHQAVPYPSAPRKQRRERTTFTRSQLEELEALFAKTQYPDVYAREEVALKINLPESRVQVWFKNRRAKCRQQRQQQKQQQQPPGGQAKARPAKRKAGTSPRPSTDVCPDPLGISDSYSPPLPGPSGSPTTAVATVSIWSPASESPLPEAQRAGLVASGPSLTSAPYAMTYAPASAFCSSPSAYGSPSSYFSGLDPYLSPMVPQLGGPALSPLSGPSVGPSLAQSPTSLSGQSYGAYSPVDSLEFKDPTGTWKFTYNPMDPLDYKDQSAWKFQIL

What all share (assay): DAPPL (digital affinity profiling via proximity ligation, sequencing)
What all share (conditions): 10 mM Tris-HCl pH 7.5, 50 mM NaCl, 1 mM DTT, 4% glycerol, room temperature, 30 min; GST-TFs on glutathione beads, 16-mer random dsDNA library, 0.1% …; high values mean tight binding; double strand, one strand shown; scale: fold enrichment (6-mer frequency, TF over GST control)

One experiment concerns the target T1, FEV (UniProt Q99581).
T1 sequence: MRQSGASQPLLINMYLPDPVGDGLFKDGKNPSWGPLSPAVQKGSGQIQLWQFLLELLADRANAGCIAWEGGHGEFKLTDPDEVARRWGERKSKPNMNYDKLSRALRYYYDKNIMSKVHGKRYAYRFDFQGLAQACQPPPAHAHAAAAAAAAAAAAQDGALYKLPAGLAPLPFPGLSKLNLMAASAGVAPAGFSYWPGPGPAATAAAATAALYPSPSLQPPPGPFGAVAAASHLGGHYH

The next experiment deals with CRX (UniProt O43186).
In the next experiment the target is T2, ELF5 (UniProt Q9UKW6-2).
T2 sequence: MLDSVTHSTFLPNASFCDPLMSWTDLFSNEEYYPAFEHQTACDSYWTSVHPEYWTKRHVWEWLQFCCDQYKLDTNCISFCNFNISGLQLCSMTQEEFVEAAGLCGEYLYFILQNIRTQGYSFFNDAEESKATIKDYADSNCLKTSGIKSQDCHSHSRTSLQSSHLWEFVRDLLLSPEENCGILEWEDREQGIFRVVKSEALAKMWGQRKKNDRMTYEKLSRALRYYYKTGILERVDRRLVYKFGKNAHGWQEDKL

The entries are a selection whose mix differs from that of the whole data set. At the low end of the ranking the order means little.

Take GGGGAC: the binding signal in the experiment with FEV was 0.472; with CRX, 0.326; with ELF5 it was 0.464.

As to CACCAG, the results for the binding signal with FEV, with CRX and in the experiment with ELF5 were 0.731, 0.634 and 0.705, respectively.

Take GACATA: the binding signal was 0.885 with FEV, 0.765 with CRX and 0.854 with ELF5.

Consider GTCGCC, for which the binding signal in the experiment with FEV worked out at 0.898; with CRX, 0.585; with ELF5, 0.889.

On to GTGATT, for which the values for the binding signal with FEV, in the experiment with CRX and with ELF5 were 0.707, 0.992 and 0.682, respectively.

TGAGTC: the binding signal with FEV came out at 0.179; in the experiment with CRX, 0.197; in the experiment with ELF5, 0.184.

On to CGAGGC, for which the values for the binding signal with FEV, in the experiment with CRX and in the experiment with ELF5 were 0.668, 0.544 and 0.654, respectively.

With TCGGAT, the binding signal with FEV came to 0.587; in the experiment with CRX, 0.99; with ELF5, 0.537.

Consider GAGGAT, for which the binding signal in the experiment with FEV stood at 0.554; with CRX, 0.957; with ELF5, 0.622.

On to GCAACG, for which the binding signal with FEV was 0.9; with CRX, 0.678; with ELF5, 0.944.

CATCGG: the binding signal in the experiment with FEV was determined as 0.695; with CRX, 0.614; with ELF5, 0.61.

Take AAGACA: the results for the binding signal with FEV, with CRX and with ELF5 were 0.923, 0.948 and 0.985, respectively.

For CGCAGG, the values for the binding signal with FEV, with CRX and with ELF5 were 0.834, 0.697 and 0.842, respectively.

Regarding CGGTAG, the binding signal with FEV is 0.732; with CRX, 0.466; in the experiment with ELF5, 0.736.

For CGGCGG, the binding signal with FEV was found to be 0.65; with CRX it was 0.423; in the experiment with ELF5, 0.565.

ACCAGC: the values for the binding signal with FEV, in the experiment with CRX and in the experiment with ELF5 were 0.828, 0.754 and 0.794, respectively.

In the case of GAGTGC, the binding signal with FEV is 0.648; in the experiment with CRX, 0.526; with ELF5 it was 0.654.

In the case of GGCCCG, the binding signal with FEV came out at 0.803; with CRX, 0.516; with ELF5 it was 0.694.

Take GGCAGG: the binding signal with FEV is 0.628; with CRX, 0.435; with ELF5, 0.558.

Regarding CAGGGA, the binding signal came out at 0.503 with FEV, 0.52 in the experiment with CRX and 0.618 in the experiment with ELF5.

Regarding GTTGAG, the binding signal worked out at 0.662 with FEV, 0.587 with CRX and 0.634 in the experiment with ELF5.

In the case of GCAGTG, the binding signal with FEV was 0.53; in the experiment with CRX, 0.445; with ELF5, 0.566.

As for GGACGA, the binding signal came out at 0.634 with FEV, 0.494 in the experiment with CRX and 0.652 with ELF5.

Take GGAGAC: the values for the binding signal in the experiment with FEV, with CRX and in the experiment with ELF5 were 0.146, 0.119 and 0.143, respectively.

Regarding CCGTAG, the binding signal stood at 0.785 with FEV, 0.707 with CRX and 0.841 with ELF5.

For the sequence GATAGG, the figures for the binding signal with FEV, with CRX and in the experiment with ELF5 were 0.771, 0.825 and 0.775, respectively.

As to GGTGAT, the figures for the binding signal in the experiment with FEV, in the experiment with CRX and with ELF5 were 0.839, 0.853 and 0.764, respectively.

For the sequence CCGTGT, the results for the binding signal in the experiment with FEV, with CRX and in the experiment with ELF5 were 0.483, 0.386 and 0.596, respectively.

With CACGGT, the binding signal was 0.887 in the experiment with FEV, 0.715 with CRX and 0.894 with ELF5.

Consider GGGCGC, for which the binding signal with FEV came out at 0.558; in the experiment with CRX, 0.438; with ELF5, 0.545.

On to ACCGTG, for which the binding signal with FEV was found to be 0.239; with CRX, 0.217; with ELF5, 0.246.

Consider GGTGCA, for which the binding signal in the experiment with FEV was found to be 0.84; in the experiment with CRX it was 0.647; in the experiment with ELF5 it was 0.848.

Consider TGACAG, for which the binding signal in the experiment with FEV came to 0.903; in the experiment with CRX, 0.79; with ELF5 it was 0.893.

TGAGAA: the binding signal with FEV was 0.725; with CRX it was 0.715; in the experiment with ELF5 it was 0.667.

For TAGCCA, the binding signal amounted to 0.805 in the experiment with FEV, 0.964 with CRX and 0.792 with ELF5.

Turning to CGTGGT, the binding signal stood at 0.561 with FEV, 0.44 with CRX and 0.586 in the experiment with ELF5.

On to CGTGGG, for which the binding signal turned out to be 0.357 with FEV, 0.312 with CRX and 0.332 in the experiment with ELF5.

TGTCGA: the results for the binding signal with FEV, with CRX and in the experiment with ELF5 were 0.756, 0.7 and 0.807, respectively.

GGCTGT: the binding signal in the experiment with FEV was determined as 0.794; with CRX, 0.663; in the experiment with ELF5, 0.732.

On to GGCGTG, for which the values for the binding signal with FEV, with CRX and with ELF5 were 0.291, 0.234 and 0.316, respectively.

Turning to AAGGGG, the values for the binding signal in the experiment with FEV, with CRX and with ELF5 were 0.926, 0.915 and 0.966, respectively.

As to GCAAGG, the figures for the binding signal in the experiment with FEV, with CRX and with ELF5 were 0.806, 0.661 and 0.787, respectively.

As to AGGTCG, the results for the binding signal in the experiment with FEV, in the experiment with CRX and with ELF5 were 0.5, 0.384 and 0.531, respectively.

On to AGGCTG, for which the results for the binding signal with FEV, in the experiment with CRX and with ELF5 were 0.632, 0.606 and 0.633, respectively.

With AAACGT, the results for the binding signal with FEV, with CRX and in the experiment with ELF5 were 0.922, 0.792 and 0.965, respectively.

Turning to ATCGGG, the binding signal in the experiment with FEV worked out at 0.443; in the experiment with CRX it was 0.538; in the experiment with ELF5, 0.432.

Consider CAGTTT, for which the values for the binding signal with FEV, in the experiment with CRX and in the experiment with ELF5 were 0.85, 0.748 and 0.863, respectively.

Take GTCGAG: the binding signal in the experiment with FEV was 0.414; with CRX, 0.366; with ELF5, 0.438.

As to ATGAGA, the binding signal in the experiment with FEV turned out to be 0.886; with CRX, 0.886; in the experiment with ELF5 it was 0.785.

Take TCGCCA: the binding signal with FEV came to 0.907; with CRX it was 0.857; in the experiment with ELF5 it was 0.946.

Consider GTGACA, for which the binding signal with FEV amounted to 0.803; with CRX, 0.51; in the experiment with ELF5, 0.805.

As for GTCAAT, the binding signal came to 0.761 in the experiment with FEV, 0.675 with CRX and 0.767 in the experiment with ELF5.

CAAGTC: the binding signal in the experiment with FEV stood at 0.859; with CRX, 0.675; in the experiment with ELF5 it was 0.823.

As to AGAGGC, the binding signal in the experiment with FEV is 0.666; with CRX, 0.67; in the experiment with ELF5, 0.661.

Take GTCGAA: the binding signal is 0.614 with FEV, 0.569 with CRX and 0.592 with ELF5.

Regarding GCGTGC, the binding signal with FEV was determined as 0.792; in the experiment with CRX, 0.589; in the experiment with ELF5, 0.752.

For the sequence CGAGGG, the binding signal was determined as 0.665 with FEV, 0.591 in the experiment with CRX and 0.62 with ELF5.

In the case of TCAGAG, the binding signal with FEV was determined as 0.639; in the experiment with CRX, 0.792; in the experiment with ELF5, 0.7.

As to GGGTTA, the binding signal is 0.765 in the experiment with FEV, 0.934 with CRX and 0.831 with ELF5.

On to GGGATA, for which the values for the binding signal with FEV, with CRX and in the experiment with ELF5 were 0.721, 1.04 and 0.86, respectively.

For the sequence CAGGTA, the binding signal with FEV worked out at 0.79; in the experiment with CRX it was 0.705; with ELF5, 0.802.

Consider GGTTGG, for which the binding signal with FEV was found to be 0.689; with CRX, 0.511; with ELF5 it was 0.759.

As for AGGAGT, the binding signal was 0.328 with FEV, 0.307 in the experiment with CRX and 0.349 in the experiment with ELF5.

Regarding GAGTGA, the results for the binding signal with FEV, with CRX and in the experiment with ELF5 were 0.425, 0.338 and 0.382, respectively.

With GTGCAA, the binding signal turned out to be 0.991 in the experiment with FEV, 0.693 with CRX and 0.882 with ELF5.

Regarding CCAGTT, the figures for the binding signal with FEV, with CRX and in the experiment with ELF5 were 0.6, 0.499 and 0.609, respectively.

Take CACGGG: the binding signal came out at 0.8 with FEV, 0.593 in the experiment with CRX and 0.815 with ELF5.

Consider GGGCAA, for which the binding signal is 0.852 with FEV, 0.674 with CRX and 0.815 with ELF5.

For GAGGTG, the binding signal with FEV is 0.423; with CRX, 0.377; with ELF5 it was 0.438.

For AGTTCG, the binding signal with FEV was 0.743; with CRX, 0.645; with ELF5 it was 0.705.

For the sequence TGCCAG, the results for the binding signal in the experiment with FEV, in the experiment with CRX and with ELF5 were 0.7, 0.671 and 0.645, respectively.

As for GATTGG, the binding signal with FEV was 0.79; with CRX, 1.01; in the experiment with ELF5, 0.841.

Regarding TCGCAG, the binding signal in the experiment with FEV amounted to 0.918; with CRX it was 0.822; with ELF5, 0.866.

For the sequence GAAGGA, the binding signal with FEV turned out to be 0.718; in the experiment with CRX it was 0.561; with ELF5, 0.888.

Regarding TTGTCG, the figures for the binding signal with FEV, in the experiment with CRX and in the experiment with ELF5 were 0.806, 0.758 and 0.91, respectively.

In the case of CACAGA, the binding signal in the experiment with FEV turned out to be 0.861; in the experiment with CRX it was 0.81; with ELF5, 0.752.

TAGAGT: the binding signal amounted to 0.738 in the experiment with FEV, 0.936 with CRX and 0.761 in the experiment with ELF5.

As for AAGCGT, the figures for the binding signal with FEV, with CRX and in the experiment with ELF5 were 0.839, 0.893 and 0.879, respectively.

For the sequence TCGGAA, the binding signal in the experiment with FEV was 0.561; with CRX it was 0.388; in the experiment with ELF5, 0.572.

Turning to TCAGGA, the results for the binding signal with FEV, with CRX and with ELF5 were 0.791, 0.749 and 0.931, respectively.

For GGAGTA, the binding signal was found to be 0.341 with FEV, 0.32 with CRX and 0.346 in the experiment with ELF5.

Take CGGAGT: the figures for the binding signal with FEV, with CRX and with ELF5 were 0.325, 0.256 and 0.294, respectively.

Consider GACGAG, for which the results for the binding signal with FEV, in the experiment with CRX and in the experiment with ELF5 were 0.513, 0.415 and 0.466, respectively.

Turning to ACCGCG, the binding signal turned out to be 0.81 with FEV, 0.675 with CRX and 0.774 with ELF5.

As for AGCAGT, the figures for the binding signal in the experiment with FEV, in the experiment with CRX and with ELF5 were 0.709, 0.629 and 0.742, respectively.

CCATGA: the binding signal with FEV was found to be 0.832; in the experiment with CRX it was 0.804; with ELF5, 0.83.

For the sequence GCCGCG, the binding signal with FEV worked out at 0.799; with CRX, 0.668; in the experiment with ELF5, 0.693.
